Results are given in words; binding and its absence hold for the method and conditions named. Some entries that bind do so weakly or less than the wild type.
Key:
[1] = biological target: mCherry-tagged KRAS G12V (human) (UniProt P01116); test: confocal fluorescence co-localisation in HeLa cells overexpressing mCherry-tagged KRAS G12V
[2] = biological target: mCherry-tagged KRAS G12V (human) (UniProt P01116); test: confocal fluorescence co-localisation in HeLa cells overexpressing mCherry-tagged KRAS G12V (FIG. 7)

For KVVVGAVGKGSKVVVGAVGK (FITC label; position not stated) [04-015-N032, FITC-labelled version of pept-in 04-015-N001], the binding [1] was “binds” and the binding [2] was “binds”.

Source: US20230090247A1, “MOLECULES TARGETING RAS PROTEIN” (AELIN THERAPEUTICS, priority 2020, published 2023)
